Results published in US20160289698A1 (TRUSTEES OF DARTMOUTH COLLEGE, published 2016).
These are yes or no findings as the source states them, for the method shown. Binding can be weak; no strength is given.

Chains of the proteins cited; added tags and fusions are not shown. Lines headed by an entry give the natural chain unless they say otherwise; changes in a name come on top.
UniProt Q940D0: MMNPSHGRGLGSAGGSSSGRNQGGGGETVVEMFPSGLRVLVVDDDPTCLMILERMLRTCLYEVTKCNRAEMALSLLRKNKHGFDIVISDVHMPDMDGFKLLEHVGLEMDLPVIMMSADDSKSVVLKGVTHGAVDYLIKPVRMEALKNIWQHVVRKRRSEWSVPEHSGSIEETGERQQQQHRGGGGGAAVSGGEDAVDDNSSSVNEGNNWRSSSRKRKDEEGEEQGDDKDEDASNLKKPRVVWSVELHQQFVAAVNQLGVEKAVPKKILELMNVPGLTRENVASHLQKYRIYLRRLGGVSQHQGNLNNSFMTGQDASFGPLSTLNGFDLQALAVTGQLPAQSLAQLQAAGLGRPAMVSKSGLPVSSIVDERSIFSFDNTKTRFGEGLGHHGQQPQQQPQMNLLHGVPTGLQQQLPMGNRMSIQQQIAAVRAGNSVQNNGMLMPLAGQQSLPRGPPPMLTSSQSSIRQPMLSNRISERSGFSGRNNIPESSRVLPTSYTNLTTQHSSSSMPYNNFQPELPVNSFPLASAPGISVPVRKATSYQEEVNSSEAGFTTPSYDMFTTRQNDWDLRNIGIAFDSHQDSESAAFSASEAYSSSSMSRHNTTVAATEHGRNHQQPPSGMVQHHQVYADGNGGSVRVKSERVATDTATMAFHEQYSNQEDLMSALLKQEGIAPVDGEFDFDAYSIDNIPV

Biological target: ARR1 (153-669) (Arabidopsis) (UniProt Q940D0)
Assay: BiFC with ARR fragments

B1: KISS ME DEADLY 1 (KMD1) (other, Arabidopsis, UniProt Q9M8L2 1-354, looked up)
chain: MELIPNLPDDVARECLLRSSYQQFPVIASVCRAWNREVSLSQFLHQRKASRHSQELLILSQARVDPAGSGKIIATPEYRISVLESGSGLWTELPPIPGQTKGLPLFCRLVSVGSDLIVLGGLDPITWQAHDSVFVFSFLTSKWRVGATMPGVRRSFFGCASDSDRTVLVAGGHNEEKCALTSAMVYDVSEDKWTFLPDMARERDECKAVFHAGRFHVIGGYATEEQGQFSKTAESFDVSTWEWGPLTEDFLDDTGDTVSPPTCVAGGDLYACWGGDVMMFLNDKWQKVGQIPADVYNVTYVAVRPGMLIVIGNGKALAGYGEATVGYICDLSSSRWVKLETHGGHVQAGCFLEV
notes: Full-length protein; also called At1g80440
binding: binds
